{"sequences": {"note": "Protein sequences, listed by entry. Tags and fused reporters are not part of them. Residues count along the entry.", "UniProt Q9NZQ7, residues 19-134": "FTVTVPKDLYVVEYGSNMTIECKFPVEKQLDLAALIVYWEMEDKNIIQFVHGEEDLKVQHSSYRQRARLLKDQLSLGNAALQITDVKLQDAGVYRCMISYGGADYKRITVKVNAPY"}, "source": "patent CN113045662A", "binders": {"B1": {"name": "PD-L1-Ig-V-VHH 6-21 (VHH)", "VHH": "DVQLQASGGGLVQAGGSLRLSCAASRMIFSTFSIQDMGWYRQAPGKQRDLVALITSDGSTNYADSVKGRFTISRDNAKSTVYLQMNNLKPEDTAVYYCAATDNVSGGRLLLNIWWMRDMWYNYWGQGTLVTVSS"}}, "key": {"PD-L1-Ig-V [1]": {"molecular_target": "PD-L1-Ig-V (UniProt Q9NZQ7)", "test": "phage ELISA, antigens coated at 2.5 ug/ml, OD450; BSA as control antigen"}, "PD-L1-Ig-V [2]": {"molecular_target": "PD-L1-Ig-V (UniProt Q9NZQ7)", "test": "checkerboard phage ELISA, antigen coated at 5 to 0.625 ug/ml, antibody at 8.3 nM to 5.312e-4 nM"}}, "note": "Results are given in words; binding and its absence hold for the method and conditions named. Some entries that bind do so weakly or less than the wild type.", "data": [{"binder": "B1", "values": [{"measurement": "binding", "setting": "PD-L1-Ig-V [1]", "result": "binds"}, {"measurement": "binding", "setting": "PD-L1-Ig-V [2]", "result": "binds"}]}]}
